# Data reported in PubChem BioAssay AID540256 (National Center for Advancing Translational Sciences (NCATS), 2011).
# Among all 300,000 compounds or so, about 3,700 (1.2%) were called active. The shares of active, inactive and inconclusive entries below differ from those in the screen. Calls come from the whole dose curve; tested in HEK293 cells. Where the call is inconclusive, the potency comes from a doubtful curve fit.
# Experiment: qHTS for Inhibitors of binding or entry into cells for Lassa Virus; note: nearly all actives have a fitted effect of over 50% in size
# Conditions: Lassa virus pseudotype entry inhibition, cell reporter; series mostly up to 37.9 µM
# Potency is the fitted concentration of half-maximal effect.
row,SMILES,Potency
1,O=C(CCn1cnnn1)Nc1ccccc1F,inactive
2,Cc1cccc(NC(=O)c2cnc3sc(N4CCCC4)nn3c2=O)c1C,inactive
3,CSCCC(NS(=O)(=O)c1ccc2c(c1)oc(=O)n2C)C(=O)Nc1ccc(F)c(Cl)c1 (stereo not drawn),inactive
4,N#CC1(Cc2ccccc2Cl)c2ccccc2C=CN1C(=O)c1ccccc1 (stereo not drawn),"inconclusive: 28.2 µM [inhibitor, single point]"
5,Cc1cc(NC(=O)CN2CCCCCCC2)no1,"inconclusive: 0.092 µM [inhibitor, full curve, poor fit]"
6,O=[N+]([O-])c1cccc(NC(=S)N2CCN(c3ccccn3)CC2)c1,"inconclusive: 11.2 µM [inhibitor, partial curve, poor fit]"
7,COc1ccc(N2C(=O)CS(=O)(=O)C23C(=O)N(Cc2ccccc2F)c2ccccc23)cc1Cl (stereo not drawn),inactive
8,COc1ccc(Br)cc1CNC(=O)c1cc(=O)[nH]c2ccc(S(=O)(=O)N3CCCCC3C)cc12 (stereo not drawn),inactive
9,Cc1cccc(Nc2nc3c(s2)CCCC3)c1,"inconclusive: 2.06 µM [activator, partial curve, poor fit]"
10,O=C(O)CCN=Cc1c(O)c2ccccc2oc1=O,"inconclusive: 2.82 µM [inhibitor, full curve, poor fit]"
11,Cc1cccc2nc(Cn3c(=O)n(-c4ccc(Cl)cc4)c(=O)c4c5c(sc43)CCC5)cc(=O)n12,inactive
12,O=C(C(Br)=Cc1ccccc1)c1ccccc1,"inconclusive: 15.8 µM [inhibitor, single point]"
13,Clc1ccc(-c2nnc(N3CCCC3)nn2)cc1,"inconclusive: 1.16 µM [activator, single point]"
14,COc1ccc(S(=O)(=O)N(CC(=O)N2CCc3ccccc3C2)c2ccc(C)cc2)cc1,active: 6.31 µM
15,CCCCN(C)CCNC(=O)c1c[nH]c2ccc(S(=O)(=O)N(CC)CC)cc2c1=O,"inconclusive: 0.562 µM [inhibitor, full curve]"
16,CCc1ccc(-c2ccc(SCc3ccccn3)nn2)cc1,"inconclusive: 35.5 µM [inhibitor, single point]"
17,O=C(NCC(=O)N1CCN(S(=O)(=O)c2ccccc2F)CC1)c1ccc(Br)o1,inactive
18,CC(C)C(c1nnnn1Cc1ccccc1)N(Cc1ccco1)Cc1cccs1 (stereo not drawn),"inconclusive: 35.5 µM [inhibitor, single point]"
19,O=C(NCc1ccccc1F)C1CCCN(C(=O)N2CCOc3ccccc32)C1 (stereo not drawn),inactive
20,O=C(Nc1nnc(CC(=O)N2CCOCC2)s1)C1COc2ccccc2O1 (stereo not drawn),"inconclusive: 1.26 µM [activator, full curve]"
21,CCOc1ccc(S(=O)(=O)N(CC(=O)Nc2ccc(OC)cc2OC)c2ccccc2)cc1,"inconclusive: 1 µM [inhibitor, full curve, poor fit]"
22,COc1ccc2nc(SCc3cccc(C)c3)nc(C)c2c1,"inconclusive: 0.501 µM [activator, full curve, poor fit]"

# Quoted at random: 3 compounds from above, in no set order.
row,SMILES,Potency
8,COc1ccc(Br)cc1CNC(=O)c1cc(=O)[nH]c2ccc(S(=O)(=O)N3CCCCC3C)cc12 (stereo not drawn),inactive
12,O=C(C(Br)=Cc1ccccc1)c1ccccc1,"inconclusive: 15.8 µM [inhibitor, single point]"
15,CCCCN(C)CCNC(=O)c1c[nH]c2ccc(S(=O)(=O)N(CC)CC)cc2c1=O,"inconclusive: 0.562 µM [inhibitor, full curve]"

# The list goes on:

row,SMILES,Potency
1,Cc1ccc(S(=O)(=O)/C(C#N)=C/c2ccccc2OCc2ccccc2)cc1,"inconclusive: 7.94 µM [inhibitor, partial curve, poor fit]"
2,COc1cc2cc(CN(CCc3cccc(C)c3)C(=S)NCCCN3CCOCC3)c(=O)[nH]c2cc1OC,"inconclusive: 35.5 µM [inhibitor, single point]"
3,CCOC(=O)CSc1nc2ccsc2c(=O)[nH]1,inactive
4,CC(=O)N1CCN(S(=O)(=O)c2cccc(C(=O)NNC(=O)COc3c(C)cccc3C)c2)CC1,"inconclusive: 3.98 µM [inhibitor, partial curve, poor fit]"
5,CC[n+]1c(/C=C/N(C)c2ccccc2)oc2ccc(F)cc21,"inconclusive: 3.16 µM [inhibitor, partial curve, poor fit]"
6,O=C(/C=C\Nc1ccc2c(c1)OCO2)c1ccc2c(c1)OCO2,"inconclusive: 31.6 µM [inhibitor, single point]"
7,Cc1nc2ccc(NS(=O)(=O)c3c(C)c(C)cc(C)c3C)cc2s1,"inconclusive: 15.8 µM [inhibitor, single point]"
8,COc1ccc(Cc2nc(-c3cccc(C)c3)no2)cc1,"inconclusive: 2.24 µM [inhibitor, partial curve, poor fit]"
9,CN(C)c1ccc(CNC(=O)Cc2ccc(NC(=O)N3CCCCc4ccccc43)cc2)cc1,"inconclusive: 3.55 µM [inhibitor, single point]"
10,CCOC(=O)c1oc2ccc(S(=O)(=O)n3nc(-c4ccc(OC)cc4)cc3N)cc2c1C,inactive
11,COc1ccc(N2CCN(CCCNC(=O)c3nnc(Cc4ccc(F)cc4)o3)CC2)cc1,"inconclusive: 0.631 µM [inhibitor, full curve, poor fit]"
12,Cc1cccc(Nc2nc(-c3ccccn3)cs2)n1,"inconclusive: 16.4 µM [inhibitor, single point]"
13,CCSc1ccccc1C(=O)N1CCN(c2ccc([N+](=O)[O-])cc2)CC1,"inconclusive: 6.51 µM [inhibitor, partial curve]"
14,CN1CCC(=NNC(=O)CN(c2cccc(Br)c2)S(C)(=O)=O)CC1,inactive
15,CCOC(=O)Cn1c2ccccc2c2nc3ccccc3nc21,inactive
16,Cc1ccc2c(CC(=O)Nc3ccc(S(=O)(=O)N4CCCCC4C)cc3)coc2c1C (stereo not drawn),"inconclusive: 35.5 µM [inhibitor, single point]"
17,CCOC(=O)C1CCN(S(=O)(=O)c2cccc(-c3cn4cccc(C)c4n3)c2)CC1,"inconclusive: 15.8 µM [inhibitor, single point]"
18,CN1C(=O)CC(N2CCC(C(N)=O)CC2)C1=O (stereo not drawn),inactive
19,C=CCn1c(SCC(=O)Nc2cccc(S(=O)(=O)N(C)c3ccccc3)c2)nnc1C1CC1,"inconclusive: 20 µM [inhibitor, single point]"
20,COc1cccc(C2c3c(-c4cc(Cl)c(C)cc4O)n[nH]c3C(=O)N2Cc2cccnc2)c1 (stereo not drawn),"inconclusive: 12.6 µM [inhibitor, partial curve]"
21,CCCc1nc2ccccc2n1CCc1ccccc1,"inconclusive: 5.8 µM [inhibitor, single point]"
